Measurements as given in PubChem BioAssay AID540256 (National Center for Advancing Translational Sciences (NCATS), 2011).
Screen size: about 300,000 compounds; about 3,700 (1.2%) were called active. This list was built around the results that the source calls inconclusive (neither active nor inactive); the mix of calls is not that of the screen. Calls come from the whole dose curve; tested in HEK293 cells. Where the call is inconclusive, the potency comes from a doubtful curve fit.

assay: qHTS for Inhibitors of binding or entry into cells for Lassa Virus; details: Lassa virus pseudotype entry inhibition, cell reporter; series mostly up to 37.9 µM; note: nearly all actives have a fitted effect of over 50% in size
Potency is the fitted concentration of half-maximal effect.

Row | Compound | Potency
1 | O=[N+]([O-])c1ccccc1Nc1ccccc1 | inactive
2 | CCOc1ccc2[nH]c(=O)c(CN(Cc3nnnn3Cc3ccco3)C3CCCCC3)cc2c1 | inconclusive: 22.4 µM [inhibitor, single point]
3 | COc1ccc(CCC(=O)Nc2ccc(C)c(S(=O)(=O)N(C)C)c2)cc1OC | inactive
4 | CCn1cnc2c1c(=O)[nH]c(=O)n2Cc1ccccc1 | inconclusive: 1.26 µM [activator, single point]
5 | N#Cc1ccccc1Cn1cc(/C=C/[N+](=O)[O-])c2ccccc21 | active: 23.1 µM
6 | COC(=O)c1ccc(C(NC(=O)OCc2ccccc2)/C(F)=C/[C@@H](C)C(=O)NCc2ccc(OC)c(OC)c2)cc1 (stereo partly specified) | active: 14.6 µM
7 | O=Cc1cccn1Cc1ccccc1[N+](=O)[O-] | inconclusive: 0.326 µM [activator, full curve, poor fit]
8 | CCN(CC)CCCNC(=O)c1c(O)c2c([nH]c1=O)CCCC2 | inactive
9 | COc1ccc(-c2cc3c(c4c2ccn4C)C2CCC3C2)cc1F (stereo unspecified) | inconclusive: 0.0125 µM [inhibitor, full curve, poor fit]
10 | C=CCn1c(SCCNC(C)=O)nc2cc(-c3ccccc3)sc2c1=O | inconclusive: 12.6 µM [activator, single point]
11 | O=C(O)c1ccc(C[n+]2c(-c3ccccc3)csc2Nc2ccccc2)cc1 | inactive
12 | Cc1cc(C)c2c(C)c(C(=O)Nc3c(C)n(C)n(-c4ccccc4)c3=O)oc2c1 | inconclusive: 1.03 µM [inhibitor, full curve, poor fit]
13 | Cn1ncc(Cl)c1C(=O)Nc1ccc(CN2CCCCC2)cc1 | inactive
14 | O=C(NNc1c(Cl)cccc1Cl)c1c(F)cccc1Cl | inactive
15 | O=C(Cn1nc(-c2ccccc2)ccc1=O)NCc1ccc(F)cc1 | inconclusive: 2.82 µM [inhibitor, single point]
16 | COc1ccc(-c2nc(C)c(CCNS(=O)(=O)c3cc(C)c(C)cc3C)s2)cc1 | inactive
17 | CCCCc1ccc(NC(=O)c2ccc(=O)n(Cc3cccc(C)c3)c2)cc1 | inconclusive: 35.5 µM [inhibitor, single point]
18 | Cc1ccc2c(c1)-c1c(cnc3cc(-c4ccccc4)nn13)CO2 | inconclusive: 11.2 µM [activator, single point]
19 | CCOc1ccc(NC(=O)Cn2nnc(-c3ccccc3NC(=O)c3cccs3)n2)cc1 | inconclusive: 6.51 µM [inhibitor, partial curve]
20 | Cc1ccc(NC(=S)NCc2ccc(F)cc2)cc1 | inactive
21 | CCOC(=O)c1c(C)noc1-c1ccc(Br)o1 | inactive
22 | COc1nc(N(c2ccccc2)c2ccccc2)nc(-n2ccnc2)n1 | inconclusive: 13 µM [inhibitor, partial curve, poor fit]
23 | Cc1ccc(NC(=O)CSc2nnc(-c3ccco3)c(-c3ccco3)n2)cc1 | active: 2.82 µM
24 | CC(C)(C)c1ccc(-c2nc(SCCCOc3ccccc3)n3[nH]c(=O)cc3n2)cc1 | inactive

Row | Compound | Potency
25 | COc1ccc(-c2c3c(=O)n(C)c(=O)n(C)c3c3c(C)nc4ccccc4n23)cc1 | inconclusive: 10 µM [inhibitor, partial curve, poor fit]
26 | CCOC(=O)N1CCN(c2c(F)cc3[nH]c(=S)[nH]c3c2Br)CC1 | inconclusive: 29.1 µM [inhibitor, single point]
27 | CCOC(=O)C1=C(c2ccccc2)Nc2ncnn2C1c1ccc(OC)c(OC)c1OC (stereo unspecified) | inactive
28 | Cn1nnc2c(N3CCN(c4ccccc4Cl)CC3)ncnc21 | inactive
29 | Cc1ccc2nc(NC(=O)C3CCN(S(=O)(=O)c4cnc[nH]4)CC3)sc2c1 | inconclusive: 16.4 µM [inhibitor, partial curve, poor fit]
30 | C=C1CC2C3CC[C@@]4(OCOC45COCO5)[C@@]3(C)C(O)CC2[C@@]2(C)CCC(=O)C=C12 (stereo partly specified) | inconclusive: 3.55 µM [inhibitor, partial curve, poor fit]
31 | CC(OC(=O)C1COc2ccccc2O1)C(=O)N(C)c1ccccc1 (stereo unspecified) | inconclusive: 6.31 µM [inhibitor, partial curve, poor fit]
32 | Cc1ccccc1NC(=O)CSc1nc2c(c(=O)n(C)c(=O)n2C)n1Cc1ccccc1F | inconclusive: 6.31 µM [inhibitor, single point]
33 | CCOC(=O)N1CCN(C(=O)c2ccc(NS(=O)(=O)c3ccc(C)cc3)cc2)CC1 | inactive
34 | COc1ccc(OC)c(NC(=O)CSc2ncccn2)c1 | inconclusive: 25.9 µM [activator, single point]
35 | Cc1ccc(OCC(=O)Nc2ccc3c(c2)OCO3)c([N+](=O)[O-])n1 | inconclusive: 7.94 µM [activator, partial curve, poor fit]
36 | Cc1ccc(Cn2nnnc2CN2CCC(NC(=O)C(C)(C)C)CC2)cc1 | inconclusive: 1 µM [inhibitor, full curve, poor fit]
37 | CCOC(=O)C1CCN(C(=O)Cn2c(=O)oc3cc(S(=O)(=O)N4CCC(C)CC4)ccc32)CC1 | inactive
38 | CCOC(=O)c1c(CN2CCN(Cc3ccccc3)CC2)n(C)c2cc(Br)c(OC)cc12 | inactive
39 | Cc1ccc(-c2c(C)n3c4c(=O)n(C)c(=O)n(C)c4nc3n2CCO)cc1 | inconclusive: 1.78 µM [inhibitor, partial curve, poor fit]
40 | c1ccc2c(c1)CC(CN1CCNCC1)O2 (stereo unspecified) | inactive
41 | CCCCOc1ccc(C(C)NC(=O)C2CCCN(S(=O)(=O)CCC)C2)cc1 (stereo unspecified) | inconclusive: 35.5 µM [inhibitor, single point]
42 | O=C(Nc1sc2c(c1C(=O)NCc1ccco1)CCCC2)c1ccc2c(c1)OCO2 | inactive
43 | COc1ccc(OC)c(S(=O)(=O)N2CCC(C(=O)NCCc3ccc(OC)c(OC)c3)CC2)c1 | inconclusive: 2.82 µM [inhibitor, full curve, poor fit]
44 | CCN(Cc1ccccc1)C(=O)CN(c1ccc(OC)cc1)S(=O)(=O)c1c(C)nn(C)c1C | inconclusive: 0.891 µM [inhibitor, full curve, poor fit]
45 | Cc1ccc(C)c(Cn2cc(S(=O)(=O)c3ccc(Cl)cc3)c(=O)c3cc(F)ccc32)c1 | inactive
46 | CC(C)CC(=O)/C(=C\c1ccc(Cl)cc1Cl)n1cncn1 | active: 0.58 µM
47 | COc1ccc(OCCN2CCN(C(=O)c3ccc(OC)cc3)CC2)cc1 | inconclusive: 7.94 µM [inhibitor, partial curve, poor fit]
48 | CCOc1ccc(NC(=O)Cn2c(=O)n(-c3cccc(OC)c3)c(=O)c3c4c(sc32)CCCC4)cc1 | inactive

Row | Compound | Potency
49 | Cc1cn2c(nc1=O)OC1C(O)C(COC(=O)c3ccccc3)OC12 (stereo unspecified) | inactive
50 | COc1ccc(C(=O)C2CCCN(C(=O)c3ccc(F)cc3)C2)cc1OC (stereo unspecified) | inconclusive: 10 µM [inhibitor, partial curve]
51 | Cc1ccc(NS(=O)(=O)c2ccc(Br)s2)cc1S(=O)(=O)N1CCOCC1 | inactive
52 | O=C1c2sc3nc4c(c(=O)n3c2C(=O)N1c1ccccc1)CCC4 | inactive
53 | CC(/C=N/NC(=O)c1n[nH]c2c1CCC2)=C\c1ccccc1 | inconclusive: 8.2 µM [inhibitor, partial curve, poor fit]
54 | O=C(CN1CCN(S(=O)(=O)c2ccc(Br)cc2)CC1)N/N=C/c1ccc(Cl)c([N+](=O)[O-])c1 | inconclusive: 29.1 µM [inhibitor, single point]
55 | COC(=O)c1c(NC(=O)CN2CCC3(O)CCCCC3C2c2ccc(F)cc2)sc(C)c1C (stereo unspecified) | inactive
56 | Cc1ccc(-c2nc3sc(CCNC(=O)c4ccc(C)c(C)c4)c(C)n3n2)cc1 | inactive
57 | CC1(C)CC(NC2C3CC4CC(C3)CC2C4)CC(C)(C)N1 (stereo unspecified) | inconclusive: 7.94 µM [inhibitor, partial curve, poor fit]
58 | CCC(=O)NC(c1ccco1)c1cc(Cl)c2cccnc2c1O (stereo unspecified) | inconclusive: 20 µM [inhibitor, single point]
59 | O=C(OCc1cn(-c2ccc(Cl)cc2)nn1)c1ccccc1 | inactive
60 | Cc1cc(C)n2nc(C(=O)N3CCOCC3)nc2n1 | inactive
61 | O=C(Nc1ccc(Cl)cc1)Nc1ccc2c(c1)N1CCN=C1S2 | inconclusive: 22.4 µM [inhibitor, single point]
62 | C=CCOc1ccc(-c2nc3c(c(=O)[nH]c(=O)n3CCC)n2CCCC)cc1 | inconclusive: 1.78 µM [inhibitor, full curve, poor fit]
63 | Cc1cc(C)cc(S(=O)(=O)c2cn(C)c3cc(N4CCCC4)c(F)cc3c2=O)c1 | inconclusive: 2.82 µM [inhibitor, single point]
64 | c1cnn2ncc(-c3ccnc(NCCCN4CCOCC4)n3)c2c1 | inconclusive: 4.99 µM [inhibitor, full curve, poor fit]
65 | CCCCOc1ccc(C(=O)C(CN2CCOCC2)c2ccccc2)cc1 (stereo unspecified) | inconclusive: 8.91 µM [inhibitor, partial curve]
66 | COc1cccc(OC)c1C(=O)Nc1nc2cc3c(cc2s1)OCO3 | inactive
67 | CC1=C[C@@H](C)O[C@@]2(C1)C(=O)Nc1cccc(Br)c12 | inconclusive: 0.0007 µM [activator]
68 | CCNc1nc(OC)nc(Oc2ccc(=O)[nH]n2)n1 | inactive
69 | CC1CCN(CCCN2C(=O)C3C(C(=O)Nc4cccc(Cl)c4)C4C=CC3(O4)C2C(=O)NC2CCCCC2)CC1 (stereo unspecified) | inconclusive: 35.5 µM [inhibitor, single point]
70 | Cc1ccc(-c2nnc(SCC#N)n2N)cc1 | inconclusive: 1.26 µM [inhibitor, single point]
71 | O=C(CN1C(=O)CCc2cc(S(=O)(=O)N3CCOCC3)ccc21)NCc1ccccc1 | inactive

Grouped by structure: the compounds so far with a tert-butyl group (two)
Row | Compound | Potency
24 | CC(C)(C)c1ccc(-c2nc(SCCCOc3ccccc3)n3[nH]c(=O)cc3n2)cc1 | inactive
36 | Cc1ccc(Cn2nnnc2CN2CCC(NC(=O)C(C)(C)C)CC2)cc1 | inconclusive: 1 µM [inhibitor, full curve, poor fit]
